Reference: the supplement of paper PMC8728848
The list shows a part of the results.

Legend:
Assay in all cases: glycan array binding signal (z-score within array); higher = stronger binding
Details in all cases: glycan notation: IUPAC condensed, linker removed
[1] = target: Fuc(a1-2)[Gal(a1-3)]Gal(b1-4)GlcNAc(b1-2)Man(a1-3)[Fuc(a1-2)[Gal(a1-3)]Gal(b1-4)GlcNAc(b1-2)Man(a1-6)]Man(b1-4)GlcNAc(b1-4)GlcNAc
Method in brief: (§1)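 From the Consortium for Functional Glycomics database, 3228 arrays were curated, keeping only those whose protein sequence was available. Binding is given as a within-array Z-score averaged across arrays sharing a protein sequence and across linkers. Negative Z-scores can be read as non-binding.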

[2] = target: Fuc(a1-2)[Gal(a1-3)]Gal(b1-4)GlcNAc(b1-2)Man(a1-3)[Fuc(a1-2)[Gal(a1-3)]Gal(b1-4)GlcNAc(b1-2)Man(a1-6)]Man(b1-4)GlcNAc(b1-4)[Fuc(a1-6)]GlcNAc
Method in brief: as §1

[3] = target: Fuc(a1-2)[Gal(a1-3)]Gal(b1-4)GlcNAc(b1-3)GalNAc
Method in brief: as §1

[4] = target: Fuc(a1-2)[Gal(a1-3)]Gal(b1-4)GlcNAc(b1-3)[Fuc(a1-2)[Gal(a1-3)]Gal(b1-4)GlcNAc(b1-6)]GalNAc
Method in brief: as §1

[5] = target: Fuc(a1-2)[Gal(a1-3)]Gal(b1-4)GlcNAc(b1-6)GalNAc
Method in brief: as §1

[6] = target: Fuc(a1-2)[Gal(a1-3)]Gal(b1-4)[Fuc(a1-3)]Glc
Method in brief: as §1

[7] = target: Fuc(a1-2)[Gal(a1-3)]Gal(b1-4)[Fuc(a1-3)]GlcNAc
Method in brief: as §1

[8] = target: Fuc(a1-2)[Gal(a1-3)]Gal(b1-4)[Fuc(a1-3)]GlcNAc(b1-3)GalNAc
Method in brief: as §1

[9] = target: Fuc(a1-2)[Gal(a1-4)]Gal(b1-4)GlcNAc
Method in brief: as §1

[10] = target: Fuc(a1-2)[GalNAc(a1-3)]Gal
Method in brief: as §1

[11] = target: Fuc(a1-2)[GalNAc(a1-3)]Gal(b1-3)GalNAc(a1-3)[Fuc(a1-2)]Gal(b1-4)GlcNAc
Method in brief: as §1

[12] = target: Fuc(a1-2)[GalNAc(a1-3)]Gal(b1-3)GalNAc(b1-3)Gal(a1-4)Gal(b1-4)Glc
Method in brief: as §1

[13] = target: Fuc(a1-2)[GalNAc(a1-3)]Gal(b1-3)GlcNAc
Method in brief: as §1

[14] = target: Fuc(a1-2)[GalNAc(a1-3)]Gal(b1-3)GlcNAc(b1-2)Man(a1-3)[Fuc(a1-2)[GalNAc(a1-3)]Gal(b1-3)GlcNAc(b1-2)Man(a1-6)]Man(b1-4)GlcNAc(b1-4)GlcNAc
Method in brief: as §1

[15] = target: Fuc(a1-2)[GalNAc(a1-3)]Gal(b1-3)GlcNAc(b1-2)Man(a1-3)[Fuc(a1-2)[GalNAc(a1-3)]Gal(b1-3)GlcNAc(b1-2)Man(a1-6)]Man(b1-4)GlcNAc(b1-4)[Fuc(a1-6)]GlcNAc
Method in brief: as §1

[16] = target: Fuc(a1-2)[GalNAc(a1-3)]Gal(b1-3)GlcNAc(b1-3)GalNAc
Method in brief: as §1

[17] = target: Fuc(a1-2)[GalNAc(a1-3)]Gal(b1-3)GlcNAc(b1-6)GalNAc
Method in brief: as §1

[18] = target: Fuc(a1-2)[GalNAc(a1-3)]Gal(b1-4)Glc
Method in brief: as §1

[19] = target: Fuc(a1-2)[GalNAc(a1-3)]Gal(b1-4)GlcNAc
Method in brief: as §1

[20] = target: Fuc(a1-2)[GalNAc(a1-3)]Gal(b1-4)GlcNAc(b1-2)Man
Method in brief: as §1

[21] = target: Fuc(a1-2)[GalNAc(a1-3)]Gal(b1-4)GlcNAc(b1-2)Man(a1-3)[Fuc(a1-2)[GalNAc(a1-3)]Gal(b1-4)GlcNAc(b1-2)Man(a1-6)]Man(b1-4)GlcNAc(b1-4)GlcNAc
Method in brief: as §1

[22] = target: Fuc(a1-2)[GalNAc(a1-3)]Gal(b1-4)GlcNAc(b1-2)Man(a1-3)[Fuc(a1-2)[GalNAc(a1-3)]Gal(b1-4)GlcNAc(b1-2)Man(a1-6)]Man(b1-4)GlcNAc(b1-4)[Fuc(a1-6)]GlcNAc
Method in brief: as §1

[23] = target: Fuc(a1-2)[GalNAc(a1-3)]Gal(b1-4)GlcNAc(b1-3)Gal(b1-4)GlcNAc
Method in brief: as §1

[24] = target: Fuc(a1-2)[GalNAc(a1-3)]Gal(b1-4)GlcNAc(b1-3)Gal(b1-4)GlcNAc(b1-3)Gal(b1-4)GlcNAc
Method in brief: as §1

[25] = target: Fuc(a1-2)[GalNAc(a1-3)]Gal(b1-4)GlcNAc(b1-3)GalNAc
Method in brief: as §1

[26] = target: Fuc(a1-2)[GalNAc(a1-3)]Gal(b1-4)GlcNAc(b1-3)[Fuc(a1-2)[GalNAc(a1-3)]Gal(b1-4)GlcNAc(b1-6)]GalNAc
Method in brief: as §1

[27] = target: Fuc(a1-2)[GalNAc(a1-3)]Gal(b1-4)GlcNAc(b1-6)GalNAc
Method in brief: as §1

[28] = target: Fuc(a1-2)[GalNAc(a1-3)]Gal(b1-4)[Fuc(a1-3)]GlcNAc
Method in brief: as §1

[29] = target: Fuc(a1-2)[GalNAc(a1-3)]Gal(b1-4)[Fuc(a1-3)]GlcNAc(b1-3)GalNAc
Method in brief: as §1

[30] = target: Fuc(a1-2)[GalNAc(a1-4)]Gal(b1-4)GlcNAc
Method in brief: as §1

[31] = target: Fuc(a1-2)[GalNAc(b1-3)]Gal
Method in brief: as §1

[32] = target: Fuc(a1-3)GlcNAc
Method in brief: as §1

[33] = target: Fuc(a1-3)[Gal(b1-4)]Glc6S
Method in brief: as §1

[34] = target: Fuc(a1-3)[Gal(b1-4)]GlcNAc
Method in brief: as §1

[35] = target: Fuc(a1-3)[Gal(b1-4)]GlcNAc(b1-2)Man
Method in brief: as §1

[36] = target: Fuc(a1-3)[Gal(b1-4)]GlcNAc(b1-2)Man(a1-3)[Fuc(a1-3)[Gal(b1-4)]GlcNAc(b1-2)Man(a1-6)]Man(b1-4)GlcNAc(b1-4)GlcNAc
Method in brief: as §1

[37] = target: Fuc(a1-3)[Gal(b1-4)]GlcNAc(b1-2)Man(a1-3)[Fuc(a1-3)[Gal(b1-4)]GlcNAc(b1-2)Man(a1-6)]Man(b1-4)GlcNAc(b1-4)[Fuc(a1-6)]GlcNAc
Method in brief: as §1

[38] = target: Fuc(a1-3)[Gal(b1-4)]GlcNAc(b1-3)Gal(b1-3)[Fuc(a1-4)]GlcNAc
Method in brief: as §1

[39] = target: Fuc(a1-3)[Gal(b1-4)]GlcNAc(b1-3)Gal(b1-4)[Fuc(a1-3)]GlcNAc
Method in brief: as §1

[40] = target: Fuc(a1-3)[Gal(b1-4)]GlcNAc(b1-3)Gal(b1-4)[Fuc(a1-3)]GlcNAc(b1-3)Gal(b1-4)[Fuc(a1-3)]GlcNAc
Method in brief: as §1

[41] = target: Fuc(a1-3)[Gal(b1-4)]GlcNAc(b1-3)GalNAc
Method in brief: as §1

[42] = target: Fuc(a1-3)[Gal(b1-4)]GlcNAc(b1-6)GalNAc
Method in brief: as §1

[43] = target: Fuc(a1-3)[Gal(b1-4)]GlcNAc(b1-6)[Gal(b1-3)GlcNAc(b1-3)]Gal(b1-4)Glc
Method in brief: as §1

[44] = target: Fuc(a1-3)[Gal(b1-4)]GlcNAc6S
Method in brief: as §1

[45] = target: Fuc(a1-3)[Gal3S(b1-4)]Glc
Method in brief: as §1

[46] = target: Fuc(a1-3)[Gal3S(b1-4)]GlcNAc
Method in brief: as §1

[47] = target: Fuc(a1-3)[Gal3S(b1-4)]GlcNAc6S
Method in brief: as §1

[48] = target: Fuc(a1-3)[GalNAc(b1-4)]GlcNAc
Method in brief: as §1

[49] = target: Fuc(a1-3)[GalNAc(b1-4)]GlcNAc6S
Method in brief: as §1

[50] = target: Fuc(a1-4)GlcNAc
Method in brief: as §1

[51] = target: Fuc(b1-3)GlcNAc
Method in brief: as §1

[52] = target: Gal(a1-2)Gal
Method in brief: as §1

[53] = target: Gal(a1-3)Gal
Method in brief: as §1

[54] = target: Gal(a1-3)Gal(b1-3)GlcNAc
Method in brief: as §1

[55] = target: Gal(a1-3)Gal(b1-3)GlcNAc(b1-2)Man
Method in brief: as §1

[56] = target: Gal(a1-3)Gal(b1-3)GlcNAc(b1-2)Man(a1-3)[Gal(a1-3)Gal(b1-3)GlcNAc(b1-2)Man(a1-6)]Man(b1-4)GlcNAc(b1-4)GlcNAc
Method in brief: as §1

[57] = target: Gal(a1-3)Gal(b1-3)GlcNAc(b1-3)GalNAc
Method in brief: as §1

[58] = target: Gal(a1-3)Gal(b1-3)GlcNAc(b1-6)GalNAc
Method in brief: as §1

[59] = target: Gal(a1-3)Gal(b1-3)[Fuc(a1-4)]GlcNAc(b1-2)Man(a1-3)[Gal(a1-3)Gal(b1-3)[Fuc(a1-4)]GlcNAc(b1-2)Man(a1-6)]Man(b1-4)GlcNAc(b1-4)GlcNAc
Method in brief: as §1

[60] = target: Gal(a1-3)Gal(b1-4)Glc
Method in brief: as §1

B1: AT1G80310(18) (Arabidopsis thaliana), Q0WP36 (protein)
chain: METTTTPLLPGDRSRCGWLRRRLRLKNPLSSELSGAVGDLGTFIPIVLTLTLVSNLDLSTTLIFTGFYNIATGLLFDIPMPVQPMKSIAAVAVSESPHLTPSQIAAAGASTAATLLLLGATGAMSFLYNIIPLPVVRGVQLSQGLQFAFTAIKYVRFNYDTATLKPSSSPRIWLGLDGLILALAALLFIILSTGSGNDREAEDGDLAETSSNESQSRRRRLRLLSSIPSALIVFALGLVLCFIRDPSIFKDLKFGPSKFHILRISWDDWKIGFLRAAIPQIPLSVLNSVIAVCKLSNDLFDKELSATTVSISVGVMNLIGCWFGAMPVCHGAGGLAGQYRFGARSGLSVIFLGIGKLIVGLVFGNSFVRILSQFPIGILGVLLLFAGIELAMASKDMNSKEDSFIMLVCAAVSMTGSSAALGFGCGVVLYLLLKLRTLDCSSVTLFSRSSDESQVDSEAAPRDV
What does the source list for B1?
glycan array binding signal (z-score) [1]: 0.588; glycan array binding signal (z-score) [2]: 0.431; glycan array binding signal (z-score) [3]: -1.01; glycan array binding signal (z-score) [4]: -0.644; glycan array binding signal (z-score) [5]: 0.042; glycan array binding signal (z-score) [6]: 1.54; glycan array binding signal (z-score) [7]: -0.238; glycan array binding signal (z-score) [8]: 2.13; glycan array binding signal (z-score) [9]: -0.702; glycan array binding signal (z-score) [10]: 1.64; glycan array binding signal (z-score) [11]: -0.928; glycan array binding signal (z-score) [12]: -0.741; glycan array binding signal (z-score) [13]: -0.66; glycan array binding signal (z-score) [14]: -0.171; glycan array binding signal (z-score) [15]: -0.162; glycan array binding signal (z-score) [16]: 0.205; glycan array binding signal (z-score) [17]: -0.527; glycan array binding signal (z-score) [18]: -0.703; glycan array binding signal (z-score) [19]: 1.59; glycan array binding signal (z-score) [20]: -0.472; glycan array binding signal (z-score) [21]: -0.944; glycan array binding signal (z-score) [22]: -0.292; glycan array binding signal (z-score) [23]: 1.68; glycan array binding signal (z-score) [24]: -0.829; glycan array binding signal (z-score) [25]: 0.291; glycan array binding signal (z-score) [26]: -0.587; glycan array binding signal (z-score) [27]: 1.43; glycan array binding signal (z-score) [28]: 1.39; glycan array binding signal (z-score) [29]: 1.71; glycan array binding signal (z-score) [30]: -0.867; glycan array binding signal (z-score) [31]: -0.584; glycan array binding signal (z-score) [32]: -0.279; glycan array binding signal (z-score) [33]: 1.38; glycan array binding signal (z-score) [34]: -0.719; glycan array binding signal (z-score) [35]: -0.042; glycan array binding signal (z-score) [36]: 1.16; glycan array binding signal (z-score) [37]: -0.402; glycan array binding signal (z-score) [38]: 1.12; glycan array binding signal (z-score) [39]: 0.576; glycan array binding signal (z-score) [40]: 0.861; glycan array binding signal (z-score) [41]: 1.35; glycan array binding signal (z-score) [42]: 0.051; glycan array binding signal (z-score) [43]: 0.22; glycan array binding signal (z-score) [44]: -0.865; glycan array binding signal (z-score) [45]: 0.156; glycan array binding signal (z-score) [46]: -0.281; glycan array binding signal (z-score) [47]: 0.546; glycan array binding signal (z-score) [48]: -0.082; glycan array binding signal (z-score) [49]: -0.885; glycan array binding signal (z-score) [50]: -0.365; glycan array binding signal (z-score) [51]: -0.095; glycan array binding signal (z-score) [52]: 0.558; glycan array binding signal (z-score) [53]: 3.63; glycan array binding signal (z-score) [54]: 3.82; glycan array binding signal (z-score) [55]: -0.812; glycan array binding signal (z-score) [56]: 0.244; glycan array binding signal (z-score) [57]: -0.4; glycan array binding signal (z-score) [58]: -0.263; glycan array binding signal (z-score) [59]: -0.515; glycan array binding signal (z-score) [60]: -0.294
